According to PMC11648165:
The exact form of at least one protein or probe is not confirmed.

Tested on: MBP-CsbHLH1 (Camellia sinensis)
Test: EMSA
Settings: EMSA on 6% polyacrylamide gel in TBE; binding buffer, pH and temperature not stated; recombinant protein; protein details: MBP, Ni-NTA purified

“ATAAGTGTCATGTGTCTCAAAATTATGAATTTATCTAGCTCAGTAAGTG (double strand) [CsTCS1 promoter probe (-971 to -1019)]”: binds.
